# Several values for one entry are separate records, joined by “and”; a condition that tells them apart may be missing. Equal entries are not always repeated. The whole screen tested about 350,000 compounds, of which about 1,200 (0.34%) were called active. The shares of active, inactive and inconclusive entries below differ from those in the screen. The call rests on the fitted dose curve; in most records, active means well fitted inhibition curve with a large enough effect; inconclusive means small, poorly fitted or top-dose-only effect; inactive means no such curve, though single readings can be large or run the other way. Potencies of inconclusive entries are doubtful fits and often do not repeat.
# Chains of the proteins cited; added tags and fusions are not shown.
# UniProt P27695, whole entry, looked up: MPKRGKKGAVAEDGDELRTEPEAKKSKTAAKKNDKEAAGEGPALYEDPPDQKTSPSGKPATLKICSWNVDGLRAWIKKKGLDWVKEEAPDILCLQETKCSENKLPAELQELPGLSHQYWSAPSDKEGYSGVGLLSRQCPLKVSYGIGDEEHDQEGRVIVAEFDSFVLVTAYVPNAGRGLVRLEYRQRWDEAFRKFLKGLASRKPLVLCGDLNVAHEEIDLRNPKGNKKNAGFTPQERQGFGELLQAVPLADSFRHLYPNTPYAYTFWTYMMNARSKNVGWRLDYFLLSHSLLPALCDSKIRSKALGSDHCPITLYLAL
# Molecular target: DNA repair nuclease/redox regulator APEX1 (Homo sapiens) (UniProt P27695)
# Assay: qHTS Assay for Inhibitors of the Human Apurinic/apyrimidinic Endonuclease 1 (APE1); further: nearly all actives have a fitted effect of over 55% in size;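 on activity change, negative = inhibition: plate controls were vehicle for no effect and reference inhibitor for full effect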
# Conditions: recombinant APE1, TAMRA/BHQ-2 abasic DNA cleavage fluorescence; activity change, negative = inhibition: at 65.8 µM (top of the series)
# Method in brief: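 Kinetic fluorescence read (525 ex/598 em nm, three reads 60 s apart) of AP-site incision; signal = third minus first read. Enzyme 0.75 nM, dual-labelled THF duplex 50 nM, compound preincubation 15 min RT.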
# Potency means the concentration at half of the fitted maximal effect.
Compound,"activity change, negative = inhibition",Potency
CCC12CCN(Cc3ccc(F)cc3)CC1Oc1c(O)cccc12 (stereo unspecified),inactive: 19.6%,–
Nc1cc(Cl)ccc1O,inactive: 4.94%,–
CCn1cc(CN(C)S(=O)(=O)c2ccc3ccccc3c2)c(C)n1,–,"inconclusive: 10 µM [inhibitor, single point]"
CC1(C)CC(=O)C2=C(C1)OC(N)=C([N+](=O)[O-])C2c1ccc(C#N)s1 (stereo unspecified),–,"inconclusive: 44.7 µM [inhibitor, single point]"
CCOC(=O)CCN(SN(C)C(=O)Oc1cccc2c1OC(C)(C)C2)C(C)C,inactive: 1.32%,–
O=C1NC(=O)C2(Cc3ccccc3N3CCCC32)C(=O)N1c1ccc(Cl)cc1 (stereo unspecified),inactive: -5.76%,–
O=C(c1ccncc1)N1CCC2(CC1)CN(Cc1ccccc1)C2,–,"inconclusive: 3.98 µM [inhibitor, single point]"
Nc1ccccc1Cl,–,"inactive and inconclusive: 670 nM [inhibitor, full curve, poor fit]"
CSCCC(N=Cc1c(O)n(-c2ccc(Br)cc2)c(=O)[nH]c1=O)C(=O)OC(C)(C)C (stereo unspecified),–,"inconclusive: 2.51 µM [inhibitor, partial curve, poor fit]"
COc1ccc(-c2cc(=NCC(=O)O)c3ccccc3o2)cc1,inactive: -20.3%,–
O=C(Cc1ccccc1)N1CCN(C2CCCCCC2)CC1,–,"inconclusive: 0.0501 µM [inhibitor, full curve, poor fit]"
CCCCC/C=C\C/C=C\C/C=C\C/C=C\CCCC(=O)Nc1ccc(O)cc1,–,"inconclusive: 39.8 µM [inhibitor, single point]"
COc1cccc(NP(=O)(Oc2ccc(Cl)cc2)Oc2ccc(Cl)cc2)c1,–,"inconclusive: 14.1 µM [inhibitor, partial curve, poor fit]"
CCNC(=O)[C@H]1O[C@@H](n2cnc3c(N)ncnc32)[C@H](O)[C@@H]1O,–,inactive
Cc1ccc(N2C(=O)NC(=O)/C(=C/c3ccoc3)C2=O)cc1,–,active: 1.58 µM
O=C1NC(=O)C(Sc2ccccc2[N+](=O)[O-])C(=O)N1,inactive: 38.8%,–
O=[N+]([O-])c1ccc(C2[C@H]3C(c4ccccc4)=NC4(CCCCC4)N23)cc1 (stereo partly specified),–,"inconclusive: 0.0032 µM [inhibitor, full curve, poor fit]"
Nc1ccc(N)cc1,–,"inconclusive: 44.7 µM [inhibitor, single point]"
ClC1=C(Cl)C(Cl)(C2(Cl)C(Cl)=C(Cl)C(Cl)=C2Cl)C(Cl)=C1Cl,–,active: 11.2 µM
O=C1NC(=O)N(Cc2ccccc2)C(=O)/C1=C/C=C/c1ccco1,–,"inconclusive: 39.8 µM [inhibitor, single point]"
C=CCN,–,"inconclusive: 25.1 µM [inhibitor, single point]"
CC(C)CN(C(=O)CN1CC=C(c2ccccc2)CC1)c1c(N)n(CC(C)C)c(=O)[nH]c1=O,inactive: -3.26%,–
ClP(Cl)(Cl)(Cl)Cl,inactive: 1.74%,–
CN1CC(C(=O)c2ccc(F)cc2)C(c2ccc(F)cc2)C1 (stereo unspecified),–,"inconclusive: 5.97 µM [inhibitor, single point]"

# For convenience, 3 of the compounds above.
Compound,"activity change, negative = inhibition",Potency
CSCCC(N=Cc1c(O)n(-c2ccc(Br)cc2)c(=O)[nH]c1=O)C(=O)OC(C)(C)C (stereo unspecified),–,"inconclusive: 2.51 µM [inhibitor, partial curve, poor fit]"
COc1ccc(-c2cc(=NCC(=O)O)c3ccccc3o2)cc1,inactive: -20.3%,–
O=C(Cc1ccccc1)N1CCN(C2CCCCCC2)CC1,–,"inconclusive: 0.0501 µM [inhibitor, full curve, poor fit]"

# (next part)

Compound,"activity change, negative = inhibition",Potency
CC1CCCC(C)N1C(=O)CSc1nc2c(c(=O)n(C)c(=O)n2C)n1C (stereo unspecified),inactive: 63.6%,–
C(CCc1nn[nH]n1)CCc1nn[nH]n1,–,"inconclusive: 0.1 µM [inhibitor, full curve]"
CCOC(=O)c1c(NC(NC(=O)CF)C(Cl)(Cl)Cl)sc2c1CCCC2 (stereo unspecified),–,"inconclusive: 22.4 µM [inhibitor, single point]"
Cc1cc(C)cc(N2C(=O)NC(=O)/C(=C\C=C\c3ccco3)C2=O)c1,inactive: 12.3%,–
CCOC(=O)C1OC1(C)c1ccccc1 (stereo unspecified),inactive: 0.535%,–
Cc1ccccc1-n1c(O)c(/C=C2/C(c3ccccc3)=Nc3ccccc32)c(=O)[nH]c1=O,–,"inconclusive: 3.16 µM [inhibitor, partial curve]"
CCCCNC(=O)Oc1c(Br)cc2sc(=O)oc2c1Br,–,"inconclusive: 10 µM [inhibitor, partial curve]"
C=CCN1C(=O)NC(=O)/C(=C/c2ccc(OC)c(COc3ccc(NC(C)=O)cc3)c2)C1=O,inactive: 9.8%,–
N#Cc1ccc(OCC(=O)N2CCN(Cc3ccc4c(c3)OCO4)CC2)cc1,–,"inconclusive: 1.26 µM [inhibitor, partial curve, poor fit]"
O=C(Cl)/C=C/C(=O)Cl,inactive: 2.81%,–
CN[C@@H]1C[C@H]2O[C@@](C)([C@@H]1OC)n1c3ccccc3c3c4c(c5c6ccccc6n2c5c31)C(=O)NC4,–,"inconclusive: 39.8 µM [inhibitor, partial curve]"
CN(CC(=O)NC(=O)NCc1ccco1)CC(=O)Nc1ccccc1Cl,–,"inconclusive: 44.7 µM [inhibitor, single point]"
CCOC(=O)c1c(C)n(Cc2ccco2)c2ccc(O)cc12,–,"inconclusive: 39.8 µM [inhibitor, single point]"
O=C1NC(=O)N(c2ccccc2)C(=O)/C1=C\c1ccc([N+](=O)[O-])s1,–,"inconclusive: 31.6 µM [inhibitor, single point]"
O=c1c2ccccc2nc(/C=C/c2ccc(O)c(O)c2)n1-c1ccccc1,inactive: 17.5%,–
C[C@@H](CO)NC(=O)[C@@H]1C=C2c3cccc4[nH]cc(c34)C[C@H]2N(C)C1,–,"inconclusive: 22.4 µM [inhibitor, partial curve]"
C[N+](C)(C)Cc1ccccc1,–,inactive
CCC(COC(=O)c1cc(OC)c(OC)c(OC)c1)(c1ccccc1)N(C)C (stereo unspecified),–,"inconclusive: 20 µM [inhibitor, partial curve, poor fit]"
O=C1NC(=O)N(c2ccccc2)C(=O)/C1=C\c1ccc([N+](=O)[O-])o1,–,"inconclusive: 31.6 µM [inhibitor, partial curve]"
CC[C@@]1(O)C(=O)OCc2c1cc1n(c2=O)Cc2cc3cc(O)ccc3nc2-1,–,"inconclusive: 39.8 µM [inhibitor, single point]"
O=c1[nH]c(O)c(N=Nc2ccc(S(=O)(=O)N3CCOCC3)cc2)c(=O)[nH]1,–,"inconclusive: 22.4 µM [inhibitor, single point]"
CCc1ccccc1N1C(=O)NC(=O)/C(=C\c2cc(C)n(C)c2C)C1=O,–,"inconclusive: 1.58 µM [inhibitor, partial curve]"
CCOCCOC(C)=O,inactive: -0.114%,–
COc1cc(NS(=O)(=O)c2ccc(NC(=S)NC(=O)CC(C)C)cc2)nc(OC)n1,–,"inconclusive: 0.794 µM [inhibitor, full curve]"

# Retrieved one by one from above (2):
Compound,"activity change, negative = inhibition",Potency
O=C1NC(=O)N(c2ccccc2)C(=O)/C1=C\c1ccc([N+](=O)[O-])o1,–,"inconclusive: 31.6 µM [inhibitor, partial curve]"
C[C@@H](CO)NC(=O)[C@@H]1C=C2c3cccc4[nH]cc(c34)C[C@H]2N(C)C1,–,"inconclusive: 22.4 µM [inhibitor, partial curve]"

# Carrying on.

Compound,"activity change, negative = inhibition",Potency
COc1ccc(/C=C2/C(=O)N(Cc3ccco3)C(=O)N(C(C)C)C2=O)cc1,–,active: 22.4 µM
CC(C)n1c(=O)c(C=Nc2ccc(S(N)(=O)=O)cc2)c(O)n(Cc2ccco2)c1=O,–,"inconclusive: 28.2 µM [inhibitor, partial curve]"
COc1ccc(OC)c(N2C(=O)NC(=O)/C(=C\c3ccc([N+](=O)[O-])s3)C2=O)c1,–,"inconclusive: 35.5 µM [inhibitor, single point]"
O=c1[nH]c(=S)n(-c2ccccc2)c(O)c1/C=N/N1CCCCC1c1cccnc1 (stereo unspecified),–,"inconclusive: 17.8 µM [inhibitor, partial curve]"
COc1ccc2c(c1)/C(=C/c1cnc[nH]1)C(=O)N2,–,"inconclusive: 44.7 µM [inhibitor, single point] and inconclusive: 14.1 µM [inhibitor, partial curve]"
Cc1cccc(OP(N)(N)=O)c1C,–,"inconclusive: 0.178 µM [inhibitor, full curve]"
O=[N+]([O-])c1ccccc1-c1ccccc1,inactive: 1.66%,–
CCCC(=O)c1ccc(CP(=O)(OCC)OCC)o1,–,"inconclusive: 3.98 µM [inhibitor, partial curve]"
CC(=O)C1=C(O)[C@@H]2[C@@H]3c4c[nH]c5cccc(c45)C[C@@H]3C(C)(C)N2C1=O,–,"inconclusive: 44.7 µM [inhibitor, partial curve, poor fit]"
CCOc1ccc2nc(N=Nc3c(O)[nH]c(=S)[nH]c3=O)sc2c1,–,"inconclusive: 11.2 µM [inhibitor, partial curve]"
Nc1ccc2ccccc2c1,inactive: -7.93%,–
CC(=O)OCC1=C(C(=O)O)N2C(=O)C(NC(=O)CCCC(N)C(=O)O)C2SC1 (stereo unspecified),–,active: 22.4 µM
Cc1ccc(-n2c(C)cc(/C=C3/C(=O)NC(=O)N(Cc4ccco4)C3=O)c2C)cc1,–,"inconclusive: 22.4 µM [inhibitor, partial curve]"
COc1ccc2c(CN3CC=C(c4ccccc4)CC3)cc(=O)oc2c1,inactive: -3.39%,–
CCCCCCCC/C=C\CCCCCCCC(=O)OC[C@@H](COP(O)(O)=S)OC,–,"inconclusive: 31.6 µM [inhibitor, single point]"
Cc1oc(-c2ccccc2Cl)nc1CN1C(=O)CN=C(c2ccccc2)c2ccccc21,–,"inconclusive: 2.82 µM [inhibitor, full curve, poor fit]"
COc1cc([C@@H]2c3cc4c(cc3[C@H](O)[C@H]3COC(=O)[C@H]23)OCO4)cc(OC)c1OC,–,"inconclusive: 1.12 µM [inhibitor, single point]"
CCCCn1c(NC(=O)c2ccc(Br)o2)c(C(=O)OCC)c2nc3ccccc3nc21,inactive: 5.56%,–
CSc1nc2ccc(C)cc2c(=O)n1-c1cccnc1,–,"inconclusive: 44.7 µM [inhibitor, single point]"
C=CCN1C(=O)/C(=C/c2ccc(N3CCOCC3)o2)C(=O)NC1=S,inactive: 4%,–
[N-]=[N+]=[N-],inactive: 26.6%,–
O=C(O[C@@H]1Cc2c(O)cc(O)cc2O[C@@H]1c1cc(O)c(O)c(O)c1)c1cc(O)c(O)c(O)c1,–,active: 0.891 µM
O=c1ccc2cc(O[C@@H]3O[C@@H](CO)[C@H](O)[C@@H](O)[C@@H]3O)c(O)cc2o1,inactive: 12.4%,–
